# Assay results: PubChem BioAssay AID1347075 (National Center for Advancing Translational Sciences (NCATS), 2019)
# Out of some 400,000 compounds screened, about 5,500 (1.4%) were called active. This list was built around the results that the source calls inconclusive (neither active nor inactive); the mix of calls is not that of the screen. Calls come from the whole dose curve; as a rule, active = well fitted cell-killing curve with a large enough effect; inconclusive = small, poorly fitted or top-dose-only effect, or effect the other way; inactive = flat fitted curve, though single readings scatter. Where the call is inconclusive, the potency comes from a doubtful curve fit.
# Experiment: qHTS assay for MDR1-selective chemotherapeutics: Primary screen using the parental adenocarcinoma cell KB-3-1; note: nearly all actives have a fitted effect of over 60% in size
# Details: KB-3-1 viability, CellTiter-Glo ATP luminescence, 72 h; activity change, negative = cytotoxic: at 46.1 µM (top of the series)
# Procedure, shortened: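 KB-3-1 parental drug-naive adenocarcinoma cells in DMEM/10% FBS, incubated 72 h at 37 C with pin-transferred compounds across a concentration series. Viability by CellTiter-Glo luminescence; concentration-response curves fitted after normalization.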
# % is set by controls: 0 for no effect and ±100 for the full control effect; potency is the fitted concentration of half-maximal effect.
SMILES,Potency,"activity change, negative = cytotoxic"
Cc1ccc(Cn2nnc3c(=O)[nH]c(C4CCN(S(=O)(=O)c5cc(C)ccc5C)CC4)nc32)cc1,"inconclusive: 20.6 µM [cytotoxic, single point]",
Cn1c(=O)[nH]c(=O)c2c1[nH]c(=S)n2Cc1ccccc1,"inconclusive: 11.6 µM [cytotoxic, partial curve, poor fit]",
CCOC(=O)Cn1nc(C)c(NC(=O)COc2ccc(Cl)cc2C)c1C,,inactive: -6.48%
O=C(COc1ccccc1)NCC(=O)Nc1ccc(S(=O)(=O)NCc2ccco2)cc1,"inconclusive: 23.1 µM [cytotoxic, single point]",
C[C@H]1CN([C@@H](C)CO)C(=O)c2cc(Br)cnc2O[C@@H]1CN(C)C(=O)CN(C)C,,inactive: 5.4%
COCCCNCCC(CCC(C)C)c1ccc2c(c1)OCO2 (centres undefined),"inconclusive: 29.1 µM [cytotoxic, single point]",
CN(C(=O)COC(=O)c1cc(NS(=O)(=O)c2cc([N+](=O)[O-])ccc2Cl)ccc1O)C1CCCCC1,,inactive: 14.3%
COc1ccc(OCC(=O)OCC(=O)c2ccc(OC)c(F)c2)cc1,,inactive: -1.62%
Cc1ccccc1C(=O)N1[C@@H](C(C)C)COc2cc(Br)ccc2S1(=O)=O,"inconclusive: 25.9 µM [cytotoxic, single point]",
Cc1cccc2c1-c1sc(C(=O)N(C)c3cccc(C(F)(F)F)c3)cc1CO2,,inactive: 0.455%
O=C(O)CSc1cc(NS(=O)(=O)c2ccc(Br)cc2)c2ccccc2c1O,,inactive: -0.155%
CCc1ccc(C(=O)Cn2ncc(Cl)c(Cl)c2=O)cc1,active: 7.31 µM,
CCOC(=O)C1(Cc2ccccc2C)CCCN(C(=O)CCc2c(C)noc2C)C1 (centres undefined),"inconclusive: 5.8 µM [cytotoxic, full curve]",
COc1ccc2nc(NC(=O)c3cccc(-c4cc5ccccc5oc4=O)c3)sc2c1,"inconclusive: 16.4 µM [cytotoxic, partial curve, poor fit]",
O=C1C=CC(O)C2(CO)OC12 (centres undefined),"inconclusive: 16.4 µM [cytotoxic, single point]",
Cc1ccc(C(=O)C=Cc2ccc3c(c2)OCO3)c(C)c1,"inconclusive: 16.4 µM [cytotoxic, single point]",
COc1ccc(C)cc1S(=O)(=O)N1CCC(C(=O)NCCC2=CCCCC2)CC1,,inactive: 0.0399%
O=C(N/N=C/c1ccc(O)cc1)c1cc(-c2ccccc2)nc2ccccc12,,inconclusive: -32.3% [cytotoxic]
CCOC(=O)c1sc(NC(=O)CSc2n[nH]c(-c3ccc(Cl)cc3Cl)n2)c(C#N)c1C,"inconclusive: 25.9 µM [cytotoxic, single point]",
COc1nc(C#N)nc(N2CCCCC2)n1,"inconclusive: 13 µM [rising, partial curve, poor fit]",
CCC(C)(C)n1nnnc1C(c1ccc(C)cc1)N(Cc1ccco1)Cc1cccs1 (centres undefined),"inconclusive: 35.5 µM [cytotoxic, single point]",
CC(Cc1ccccc1)=NNc1ccc([N+](=O)[O-])cc1[N+](=O)[O-],"inconclusive: 16.4 µM [cytotoxic, single point]",

SMILES,Potency,"activity change, negative = cytotoxic"
COc1ccc(Cl)cc1NC(=O)NCc1cccnc1,,inactive: -3.15%
CC(=O)O[C@H]1[C@@H](O)[C@H](O)[C@H](Oc2c(O)c(C)c3c4c2[C@@H](C)CC[C@@H]4[C@@H](C)C[C@H]3C=C(C)C)O[C@H]1C,"inconclusive: 29.1 µM [cytotoxic, single point]",
COc1ccc2oc3cc(C)[n+]([O-])c(-c4ccc(Br)cc4)c3c2c1,"inconclusive: 29.1 µM [cytotoxic, single point]",
COc1ccc(-c2cn[nH]c2N)cc1,,inactive: -1.6%
COC(=O)c1cccc(Nc2cc(C)nc(-c3ccccc3O)n2)c1,"inconclusive: 32.6 µM [cytotoxic, single point]",
COc1ccc(NC(=O)c2noc(C(C)C)c2[N+](=O)[O-])cc1,,inactive: -0.0434%
COc1ccc(C2/C=C\CN(C(=O)c3ccccc3)CC(=O)N2Cc2cccc(F)c2)cc1 (centres undefined),,inactive: 0%
CCC(CC)c1nnc(NC(=O)Cc2ccccc2[N+](=O)[O-])s1,"inconclusive: 20.6 µM [rising, single point]",
Cc1ccc(C(=O)Nc2ccc(-c3nc4ccccc4s3)cc2C)cc1C,,inconclusive: -13.8%
O=C(Nc1ncc2c(n1)-c1ccccc1OC2)c1ccc(F)cc1,,inconclusive: 6.89%
O=C(c1ccccc1)c1ccc2nc(-c3ccc(NC(=O)c4ccccc4F)cc3)[nH]c2c1,,inactive: 5.93%
CC(=O)N=c1scc(-c2ccccc2)n1-c1cccc(O)c1,"inconclusive: 25.9 µM [cytotoxic, single point]",
Cn1c(=O)cc(Nc2ccc(Cl)cc2)[nH]c1=O,,inactive: -3.83%
COc1ccc2nc(NN=C(C)c3ccccn3)cc(C)c2c1,"inconclusive: 0.731 µM [cytotoxic, full curve, poor fit]",
O=[N+]([O-])c1cnc(Sc2ccncn2)c([N+](=O)[O-])c1,"inconclusive: 29.1 µM [cytotoxic, single point]",
CCc1ccc2oc(C(=O)NCc3ccc(S(N)(=O)=O)cc3)c(C)c2c1,"inconclusive: 16.4 µM [rising, single point]",
COc1cc(OC)c(OC)cc1/C=N/NC(=O)c1ccc(=O)n(C)c1,,inactive: -15.3%
CC(C)C[C@H]1CNC(=S)N1CC1CCCN1C[C@H](Cc1ccccc1)N1C[C@H](Cc2ccc(O)cc2)N(CC2CCCCC2)C1=S (some centres undefined),"inconclusive: 29.1 µM [cytotoxic, single point]",
O=C(NC(c1ccc(F)cc1)c1ccc2ccccc2n1)C1CCN(Cc2ccc(Oc3ccccc3)cc2)CC1 (centres undefined),"inconclusive: 23.1 µM [cytotoxic, single point]",
Cc1ccc(C2CC(=O)C=C(NCC(C)C)C2)cc1 (centres undefined),,inconclusive: -6.82%
COC(=O)c1c(C)oc2ccc(NS(=O)(=O)c3cc(OC)ccc3OC)cc12,active: 25.9 µM,
CC(C)Cc1nc(Nc2ccc(S(=O)(=O)N3CCCC3)cc2)c2nnn(Cc3ccccc3)c2n1,"inconclusive: 32.6 µM [cytotoxic, single point]",

# A stretch from the list above:
SMILES,Potency,"activity change, negative = cytotoxic"
O=C(N/N=C/c1ccc(O)cc1)c1cc(-c2ccccc2)nc2ccccc12,,inconclusive: -32.3% [cytotoxic]
CCOC(=O)c1sc(NC(=O)CSc2n[nH]c(-c3ccc(Cl)cc3Cl)n2)c(C#N)c1C,"inconclusive: 25.9 µM [cytotoxic, single point]",
